Experimental data reported in the supplement of paper PMC11098740.
± gives the standard deviation of the averaged measurements. Some of the results follow. Many values rest on one well or one pass, so single values are uncertain.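 Pooled together, 41 HAP1 clones carry intronic fluorescent tags on 61 cancer-associated proteins, and each clone is recognized by its imaging pattern. Measurements are benchmarked against DMSO-treated control wells. dBET6, a BRD4 degrader, served as the positive control.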

By UniProt entry, the sequences of proteins in these tests, tags left out.
UniProt O14980, whole entry: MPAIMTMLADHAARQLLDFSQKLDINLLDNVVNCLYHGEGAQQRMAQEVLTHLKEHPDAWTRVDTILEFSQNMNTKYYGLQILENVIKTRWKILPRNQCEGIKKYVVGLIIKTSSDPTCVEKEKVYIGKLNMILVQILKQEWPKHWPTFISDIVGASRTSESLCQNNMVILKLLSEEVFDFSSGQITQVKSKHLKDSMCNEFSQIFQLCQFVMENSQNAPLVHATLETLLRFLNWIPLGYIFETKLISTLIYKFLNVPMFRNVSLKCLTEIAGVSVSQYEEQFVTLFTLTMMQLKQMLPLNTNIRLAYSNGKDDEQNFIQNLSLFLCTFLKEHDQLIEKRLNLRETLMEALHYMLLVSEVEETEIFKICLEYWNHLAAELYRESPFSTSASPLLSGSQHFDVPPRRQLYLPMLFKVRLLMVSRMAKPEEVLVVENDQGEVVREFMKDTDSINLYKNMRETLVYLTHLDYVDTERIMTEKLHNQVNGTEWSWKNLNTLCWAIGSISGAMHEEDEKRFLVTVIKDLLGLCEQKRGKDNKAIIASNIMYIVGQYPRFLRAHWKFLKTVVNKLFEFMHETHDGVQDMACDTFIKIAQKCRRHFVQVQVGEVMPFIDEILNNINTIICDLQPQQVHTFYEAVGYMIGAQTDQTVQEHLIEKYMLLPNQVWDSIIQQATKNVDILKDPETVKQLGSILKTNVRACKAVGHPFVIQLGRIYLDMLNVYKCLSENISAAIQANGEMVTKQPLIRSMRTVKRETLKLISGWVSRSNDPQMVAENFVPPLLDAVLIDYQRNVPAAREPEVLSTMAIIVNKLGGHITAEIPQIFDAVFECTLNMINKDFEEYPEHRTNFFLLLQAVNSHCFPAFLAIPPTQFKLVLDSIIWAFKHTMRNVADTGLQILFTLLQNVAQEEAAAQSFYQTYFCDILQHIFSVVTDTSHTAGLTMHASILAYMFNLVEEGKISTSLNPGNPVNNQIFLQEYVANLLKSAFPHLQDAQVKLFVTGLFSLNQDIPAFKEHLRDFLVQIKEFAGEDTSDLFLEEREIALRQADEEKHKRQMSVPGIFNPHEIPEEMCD

Each compound was assayed against XPO1 (intron 15 mScarlet tag, HAP1) (UniProt O14980) (assay: XPO1 fluorescence intensity change vs DMSO (log2 fold change); higher = more XPO1 protein). Settings: 6 h.

| SMILES | XPO1 fluorescence intensity change (log2) |
| --- | --- |
| C/C=C1\NC(=O)[C@H]2CSSCC/C=C/[C@H](CC(=O)N[C@H](C(C)C)C(=O)N2)OC(=O)[C@H](C(C)C)NC1=O [Romidepsin] (10 µM) | 0.0689 ± 0.07 |
| CN1CCN(CCCN2c3ccccc3Sc3ccc(C(F)(F)F)cc32)CC1 [Trifluoperazine] (10.00057696 µM) | 0.0223 |
| c1ccc([C@H]2CN3CCSC3=N2)cc1 [Levamisole] (10 µM) | -0.0406 |
| COc1ccccc1OCC(O)CN1CCN(CC(=O)Nc2c(C)cccc2C)CC1 (centres undefined) [Ranolazine] (10 µM) | 0.0518 |
| COc1ccc(C[C@@H]2c3cc(OC)c(OC)cc3CC[N@+]2(C)CCC(=O)OCCCCCOC(=O)CC[N@@+]2(C)CCc3cc(OC)c(OC)cc3[C@H]2Cc2ccc(OC)c(OC)c2)cc1OC [Cisatracurium Besylate] (10 µM) | -0.0179 |
| CCCCN(CCCC)CCC(O)c1cc2c(Cl)cc(Cl)cc2c2cc(C(F)(F)F)ccc12 (centres undefined) [Halofantrine] (10 µM) | 0.0375 |
| CCCS(=O)(=O)Nc1ccc(F)c(C(=O)c2c[nH]c3ncc(-c4ccc(Cl)cc4)cc23)c1F [Vemurafenib] (20 µM) | 0.0112 |
| CNCCCC12CCC(c3ccccc31)c1ccccc12 [Maprotiline] (11.3144 µM) | 0.0329 |
| Cc1[nH]c(=O)c(C#N)cc1-c1ccncc1 [Milrinone] (10.0021 µM) | -0.154 |
| COCc1c(C(C)C)nc(C(C)C)c(/C=C/[C@@H](O)C[C@@H](O)CC(=O)O)c1-c1ccc(F)cc1 [Cerivastatin] (10.5 µM) | 0.134 |
| CC#CCC(C)[C@H](O)/C=C/[C@@H]1[C@H]2C/C(=C/CCCC(=O)O)C[C@H]2C[C@H]1O (some centres undefined) [Iloprost] (10 µM) | 0.0382 |
| CNC(=C[N+](=O)[O-])NCCSCc1csc(CN(C)C)n1 [Nizatidine] (10 µM) | -0.172 |
| CCCCCCCN(CC)CCCC(O)c1ccc(NS(C)(=O)=O)cc1 (centres undefined) [Ibutilide] (10.00092008 µM) | 0.0421 |
| CCCCNc1cc(C(=O)O)cc(S(N)(=O)=O)c1Oc1ccccc1 [Bumetanide] (10.00031521 µM) | 0.0411 |
| Cc1nc2n(c(=O)c1CCN1CCC(c3noc4cc(F)ccc34)CC1)CCCC2 [Risperidone] (10.00083684 µM) | 0.167 |
| Cc1ccccc1C(=O)Nc1ccc(C(=O)N2CCCC(O)c3cc(Cl)ccc32)c(C)c1 (centres undefined) [Tolvaptan] (10 µM) | 0.201 |
| N=C(N)NCC1COC2(CCCCC2)O1 (centres undefined) [Guanadrel] (10 µM) | 0.0513 |
| CC(=O)NO [Acetohydroxamic Acid] (10 µM) | -0.0404 |
| C1CNCCN1 [Piperazine Hexahydrate] (10.008 µM) | 0.151 |
| Nc1ccn([C@@H]2O[C@H](CO)[C@@H](O)[C@@H]2O)c(=O)n1 [Cytarabine] (0.316228 µM) | -0.114 |

| SMILES | XPO1 fluorescence intensity change (log2) |
| --- | --- |
| CC(C)(C)C(=O)OCC(=O)[C@H]1CC[C@H]2[C@@H]3CCC4=CC(=O)CC[C@]4(C)[C@H]3CC[C@]12C [Desoxycorticosterone Pivalate] (10.0000892 µM) | -0.13 |
| N[C@@H]1CONC1=O [D-Cycloserine] (10 µM) | 0.0166 |
| COCCCOc1cc(C[C@@H](C[C@H](N)[C@@H](O)C[C@H](C(=O)NCC(C)(C)C(N)=O)C(C)C)C(C)C)ccc1OC [Aliskiren] (10.0003 µM) | 0.0222 |
| CC[N+](C)(CC)CCOC(=O)C(O)(c1ccccc1)C1CCCCC1 (centres undefined) [Oxyphenonium Bromide] (9.99928 µM) | 0.276 |
| CC(=O)c1c(C)c2cnc(Nc3ccc(N4CCNCC4)cn3)nc2n(C2CCCC2)c1=O [Palbociclib] (10 µM) | 0.0405 |
| CO[C@H]1C[C@@H]2CC[C@@H](C)[C@@](O)(O2)C(=O)C(=O)N2CCCC[C@H]2C(=O)O[C@H]([C@H](C)C[C@@H]2CC[C@@H](OC(=O)C(C)(CO)CO)[C@H](OC)C2)CC(=O)[C@H](C)/C=C(\C)[C@@H](O)[C@@H](OC)C(=O)[C@H](C)C[C@H](C)/C=C/C=C/C=C/1C [Temsirolimus] (20 µM) | -0.0348 |
| CCCCc1oc2ccc(NS(C)(=O)=O)cc2c1C(=O)c1ccc(OCCCN(CCCC)CCCC)cc1 [Dronedarone] (10 µM) | 0.166 |
| CNC1(C)C2CCC(C2)C1(C)C (centres undefined) [Mecamylamine] (12.2 µM) | 0.062 |
| OC[C@H]1O[C@@H](n2cnc3c2N=CNC[C@H]3O)C[C@@H]1O [Pentostatin] (14.69 µM) | 0.0903 |
| O=C1Nc2ccc(Cl)cc2[C@@](C#CC2CC2)(C(F)(F)F)O1 [Efavirenz] (10 µM) | 0.037 |
| COCCCC/C(=N\OCCN)c1ccc(C(F)(F)F)cc1 [Fluvoxamine] (9.99978 µM) | 0.0195 |
| O=C1CC2(CCCC2)C(O)C(=O)N1CCCCN1CCN(c2ncccn2)CC1 (centres undefined) [6-Hydroxybuspirone] (10 µM) | 0.0138 |
| N[C@@H](Cc1cc(I)c(Oc2ccc(O)c(I)c2)c(I)c1)C(=O)O [Liothyronine] (10 µM) | 0.0329 |
| N=C(N)NC(=O)c1nc(Cl)c(N)nc1N [Amiloride] (9.99961 µM) | 0.0982 |
| CC(=O)Nc1nnc(S(N)(=O)=O)s1 [Acetazolamide] (10 µM) | -0.0928 |
| NCCCC(N)(C(=O)O)C(F)F (centres undefined) [Eflornithine] (10 µM) | 0.0661 |
| CCCSc1ccc2[nH]c(NC(=O)OC)nc2c1 [Albendazole] (10 µM) | 0.21 |
| CC(=O)O[C@H]1C(=O)[C@@]2(C)[C@H]([C@H](OC(=O)c3ccccc3)[C@]3(O)C[C@H](OC(=O)[C@H](O)[C@@H](NC(=O)c4ccccc4)c4ccccc4)C(C)=C1C3(C)C)[C@]1(OC(C)=O)CO[C@@H]1C[C@@H]2O [Paclitaxel] (0.065394 µM) | 0.0406 |
| CC(N/C(=N\C#N)Nc1ccncc1)C(C)(C)C (centres undefined) [Pinacidil] (10 µM) | 0.107 |

Taken from above:
CC(=O)c1c(C)c2cnc(Nc3ccc(N4CCNCC4)cn3)nc2n(C2CCCC2)c1=O [Palbociclib] (10 µM) – XPO1 fluorescence intensity change (log2): 0.0405
CNC1(C)C2CCC(C2)C1(C)C (centres undefined) [Mecamylamine] (12.2 µM) – XPO1 fluorescence intensity change (log2): 0.062
O=C1CC2(CCCC2)C(O)C(=O)N1CCCCN1CCN(c2ncccn2)CC1 (centres undefined) [6-Hydroxybuspirone] (10 µM) – XPO1 fluorescence intensity change (log2): 0.0138
